Reference: the supplement of paper PMC3334620
The full ranking holds about 33,000 sequences; the median of “E-score (-0.5 to 0.5)” is about -0.0059, and the highest 2% start at about 0.26. The list shows a part of the results.

Each sequence was assayed against T1, Cin5 (UniProt P40917) (assay: PBM E-score (8-mer binding enrichment) (E-score (-0.5 to 0.5)); higher = stronger / more preferred TF binding). Settings: protein concentration: 100 nM; construct: GST-full length.
T1 sequence: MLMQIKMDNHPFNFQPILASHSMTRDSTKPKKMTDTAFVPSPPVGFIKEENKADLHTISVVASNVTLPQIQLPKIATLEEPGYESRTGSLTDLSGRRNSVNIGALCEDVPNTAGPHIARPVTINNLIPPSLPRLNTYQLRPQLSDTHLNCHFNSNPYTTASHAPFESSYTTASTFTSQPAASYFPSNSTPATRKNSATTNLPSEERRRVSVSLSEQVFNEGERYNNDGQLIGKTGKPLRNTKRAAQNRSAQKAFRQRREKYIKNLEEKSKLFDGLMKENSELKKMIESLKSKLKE
Outline: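 Yeast transcription factors, full-length or as DNA-binding domains, were expressed with a GST tag using PURExpress in vitro transcription/translation. At about 100-200 nM they were applied to universal all-10-mer Agilent arrays, double-stranded by primer extension on fresh or once-stripped slides. Fluorescent anti-GST detected bound protein, and masliner normalised the scans. E-scores for ungapped eight-base words, pooled with reverse complements, came from the Universal PBM Analysis Suite.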

Row | Sequence | PBM E-score
1 | ACACAGCC | -0.0402
2 | GGTTCTTA | 0.0912
3 | AGATCACT | 0.112
4 | CAGTTGAG | -0.0998
5 | GCCTCGGA | -0.162
6 | GACTCTCA | 0.0568
7 | ACACACAT | 0.0722
8 | ACATAAGC | 0.437
9 | GTGCACCA | -0.032
10 | ATACTCAG | 0.258
11 | AGAGACCT | -0.142
12 | CCATGATA | 0.0295
13 | TCCCTCAA | -0.0793
14 | GCTAGGAC | -0.287
15 | ACGTGTCG | -0.106
16 | GATTCGGA | 0.196
17 | ATGGTCGC | -0.115
18 | CATTGGCC | -0.217
19 | CCTACCCA | -0.0673
20 | GGATATAA | 0.149
21 | CATCTAGA | 0.0871
22 | TGTTAACA | 0.0456
23 | ACTTTTAG | -0.0275
24 | ATTGTAAC | 0.0597
25 | GCAGGTCC | -0.0437

Row | Sequence | PBM E-score
26 | CCAGGACG | -0.215
27 | ACATGACG | 0.00136
28 | CCACGAAC | 0.0703
29 | GTAGATAC | 0.0747
30 | CACCACTA | 0.152
31 | CAGGACCC | -0.19
32 | CGCAGTGA | -0.016
33 | TCAAAGGA | -0.127
34 | CGCAATGC | -0.0471
35 | ACCACAGT | 0.181
36 | ATGTTATG | 0.23
37 | GAATCTAC | 0.0167
38 | CTTAGTTC | 0.0989
39 | ACCGTTCT | 0.00357
40 | AAGACGGC | -0.00699
41 | GAGTGCAA | 0.181
42 | CCCCTAGG | -0.2
43 | CGAGAACC | -0.135
44 | GACAGTAC | 0.0368
45 | GAGAGCAC | -0.11
46 | AAGCTGAG | 0.0827
47 | GTATGGTA | 0.186
48 | TATAGTCA | 0.0921
49 | CCAGACTC | -0.114
50 | CTAAGAGA | -0.105

Row | Sequence | PBM E-score
51 | GACACGCA | 0.00821
52 | ACTAAAAG | 0.0211
53 | GCTAGATA | 0.0828
54 | AGATCGCG | 0.0855
55 | GCAGAAAC | 0.0275
56 | AAGTTACG | 0.208
57 | CGAATGAA | 0.0154
58 | GGACAGCA | -0.0105
59 | ATTTCCTG | 0.164
60 | GAGACCCC | -0.176
61 | CTTTTGCC | 0.138
62 | AGGCAAGC | -0.175
63 | ATTTTTTC | 0.111
64 | ATATACTG | 0.202
65 | CCTGGTCG | -0.297
66 | CCAAGTAG | -0.0659
67 | CGAGATTC | 0.168
68 | CGTCCCTA | -0.238
69 | CTGGCTGC | -0.157
70 | CATGATAC | 0.184
71 | GATAAAAA | 0.115
72 | CCCGTCGA | -0.19
73 | AAAGTGTC | 0.0469
74 | ACTATGGA | -0.119
75 | AGACTTTG | -0.0222

Look-ups from the results shown:
Value for CGAGATTC under PBM E-score: 0.168
Value for CTGGCTGC under PBM E-score: -0.157
Value for CGTCCCTA under PBM E-score: -0.238
Value for ATATACTG under PBM E-score: 0.202
Value for GACACGCA under PBM E-score: 0.00821

Next part:

Row | Sequence | PBM E-score
76 | AGGGGGGG | -0.486
77 | ACTGCTAG | -0.144
78 | CCAAGGAA | -0.189
79 | AATTTTGA | 0.123
80 | GATCAGTA | 0.0752
81 | ACGGAATA | 0.22
82 | ACGCCGGA | -0.169
83 | CCCGTCGC | -0.143
84 | AAACACCC | -0.00644
85 | AGCCCGTA | -0.259
86 | ACGAAGAA | 0.284
87 | ATTCACAG | 0.0491
88 | ATGAGAGG | -0.0789
89 | AGAGCTTG | -0.0623
90 | GTACGATA | 0.003
91 | AACGTTTA | 0.00096
92 | GCCACTCC | 0.00604
93 | CCAACTGA | -0.0912
94 | CGTCATAA | 0.157
95 | AAACATGT | 0.261
96 | AAATCCAC | 0.0254
97 | GTTGCACA | -0.17
98 | CAAAATTA | 0.156
99 | CCCCAAGG | -0.0715
100 | CTGCTTCA | -0.153

Reformatted as tab-separated lines: entries from further up.
Row	Sequence	PBM E-score
78	CCAAGGAA	-0.189
83	CCCGTCGC	-0.143
84	AAACACCC	-0.00644
90	GTACGATA	0.003
97	GTTGCACA	-0.17

Continuation:

Row | Sequence | PBM E-score
101 | CGCGACGC | -0.0999
102 | TCAAGCGA | 0.0108
103 | CCGGCGCA | -0.0376
104 | CAAGACAC | 0.101
105 | CGTACTCA | 0.228
106 | GGGACAGA | -0.189
107 | GATTACAA | 0.175
108 | ATTGGTCG | 0.0452
109 | CGCTGTGA | -0.0731
110 | AGCCGGTA | -0.0767
111 | CCCCCCAG | -0.489
112 | GGCTTGAC | -0.0104
113 | ACAATGAA | 0.125
114 | ATGTGTAG | 0.141
115 | GCGATCGC | 0.125
116 | GGAGGTAA | -0.00128
117 | CTCGTGTA | 0.0208
118 | AGAGCTCA | -0.0702
119 | ACCTCATA | 0.0846
120 | AGTGCAAT | 0.159
121 | CCTCGCGC | -0.0801
122 | CGATTTGC | -0.066
123 | CTCATAAA | 0.0593
124 | ATACCTGA | 0.138
125 | CCTAGACA | -0.25

Row | Sequence | PBM E-score
126 | ATCTATGA | 0.129
127 | AGGCCCCG | -0.258
128 | ATCTAGAG | 0.0258
129 | CAGGTGAC | -0.208
130 | CGGTCCTC | -0.209
131 | CGAAACTA | 0.159
132 | GGTCATGA | 0.054
133 | CTTGCGTA | 0.00041
134 | AGACGCGA | 0.0486
135 | ACATCCCG | 0.221
136 | ACACGCCG | 0.0675
137 | GTGCCCGA | -0.291
138 | AAGTACTG | -0.0282
139 | AAACACAA | -0.0174
140 | AGCAAGAC | 0.00492
141 | AAAAGTAG | 0.0258
142 | CGGAGGAC | -0.212
143 | AACGGGTA | 0.0943
144 | AGAGTGAG | 0.0504
145 | CACCGACA | -0.0774
146 | ACTTGTCA | 0.014
147 | ATGGGAAG | -0.0733
148 | AACTTGTG | 0.254
149 | AGAATCTA | -0.0563
150 | CGTCCAAA | 0.129

Row | Sequence | PBM E-score
151 | AAACGATA | 0.012
152 | ATTTTAGG | -0.0296
153 | ACGTTCCC | -0.0944
154 | ATTAATTG | 0.193
155 | CCAATAGC | -0.0788
156 | CTGGACAG | -0.132
157 | CACACCTC | 0.112
158 | ACAGCATC | 0.119
159 | AATGAGGA | -0.105
160 | CTTGCAAG | -0.0398
161 | ATAGCGTA | 0.16
162 | CTGACGAC | -0.103
163 | ATATGTTA | 0.105
164 | TACCCTGA | -0.0518
165 | AGGTACGA | -0.123
166 | GATGAATA | 0.243
167 | GAAGCCAC | -0.101
168 | AAACAGCT | 0.0148
169 | GAAGCAGA | -0.0139
170 | CACACTTC | -0.0175
171 | CATTGCCG | -0.0695
172 | AGTAGACA | -0.0445
